Assay: EO concentration maintained in sealed barrel (SEC sensor)
Settings: 17.6 g EO ampoule

C1CO1 [ethylene oxide]
average ethylene oxide concentration maintained (barrel filled with 150 pounds (30 reams) of paper, two cycles): 13.9 mg/L
average ethylene oxide concentration maintained (empty airtight 48.8 gallon barrel, three cycles): 70.3 mg/L

Reference: US20200296959A1, “DISINFECTION AND/OR STERILIZATION OF AGRICULTURAL CROPS” (priority 2019, published 2020)
